Measured values as given in ChEMBL document CHEMBL3098050, “Stereoselective total synthesis of a novel regiomer of herbarumin I and its cytotoxic and antimicrobial activities” (Bioorg Med Chem Lett, 2014).
pIC50: −log10 of the molar value.

How the values were obtained:
Type in all cases: functional, cell-based
MDA-MB-231 = assay: Cytotoxicity against human MDA-MB-231 cells by MTT assay
In short: (§1)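 MTT read-out (Mosmann method); absorbance dose–response curves plotted and IC50 calculated from them; each cell line's value is the mean of two independent experiments; doxorubicin as positive control.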

A549 = assay: Cytotoxicity against human A549 cells by MTT assay; in short: as §1
HepG2 = assay: Cytotoxicity against human HepG2 cells by MTT assay; in short: as §1

Structure (SMILES): COc1cccc2c1C(=O)c1c(O)c3c(c(O)c1C2=O)C[C@@](O)(C(=O)CO)C[C@@H]3O[C@H]1C[C@H](N)[C@H](O)[C@H](C)O1 [DOXORUBICIN]
- pIC50 (MDA-MB-231): 6.22
- pIC50 (A549): 6.15
- pIC50 (HepG2): 6.22
